Measurements as given in patent US20040166058A1, “Ethylenedicysteine (EC)-drug conjugates, compositions and methods for tissue specific disease imaging” (Board of Regents, The University of Texas System, priority 2002, published 2004).

Assays:
mammary tumor = assay: Scintigraphic imaging in mammary (breast) tumor-bearing rats; type: in vivo; conditions: iv
[1] = tested on: 13762 tumor cell line mammary tumor; assay: Gamma scintigraphic imaging in Fischer 344 rats with 13762 mammary tumor; type: in vivo; conditions: 0.5, 2 and 4 hours after i.v. injection of 300 μCi
Experimental: Female Fischer 344 rats (250-275 g each) (Harlan, Inc., Indianapolis, Ind.) were inoculated with mammary tumor cells by one author from the 13762 tumor cell line (s.c. 10^6 cells/rat, a tumor cell line specific to Fischer rats). After 8-10 days, tumor volumes of 0.3-0.6 cm were measured. Scintigraphic images were obtained 0.5, 2 and 4 hours after i.v. injection of 300 μCi of ^99mTc-EC or ^99mTc-EC-DG (n=3/agent, total 6 rats). ROI between tumor tissue and muscle (at symmetric site) was used to determine tumor/non-tumor ratios. The smallest tumor volume that could be detected by ^99mTc-EC-DG was 3 mm.

[2] = 0.5-4 hrs (EC-TML 0.1-4 hrs), 0.1 mCi/rat

Compound | Planar images: tumor visualization (mammary tumor; [2]) | also measured
Cc1ccc(-c2cc(C(F)(F)F)nn2-c2ccc(S(=O)(=O)NC(=O)NCC(=O)NCCNC(=O)C3C[S][99Tc]45(=[O])[S]CC(C(=O)O)[N]4CC[N]35)cc2)cc1 (stereo not shown) [^99mTc-EC-COX-2] | – | Planar images: tumor visualization (mammary tumor; 0.5-4 hrs, 0.3 mCi/rat): tumors could be visualized clearly
O=C(NC1C(O)OC(CO)C(O)C1O)C1C[S][99Tc]23(=[O])[S]CC(C(=O)NC4C(O)OC(CO)C(O)C4O)[N]2CC[N]13 (stereo not shown) [^99mTc-EC-DG] | – | smallest tumor volume that could be detected [1]: 3 mm
C[N+](C)(C)CCCCC(NC(=O)C1C[S][99Tc]23(=[O])[S]CC(C(=O)NC(CCCC[N+](C)(C)C)C(=O)[O-])[N]2CC[N]13)C(=O)[O-] (stereo not shown) [^99mTc-EC-carnitine] | tumors could be visualized | –
Nc1nc2c(ncn2CCC(CO)CNC(=O)C2C[S][99Tc]34(=[O])[S]CC(C(=O)NCC(CO)CCn5cnc6c(=O)[nH]c(N)nc65)[N]3CC[N]24)c(=O)[nH]1 (stereo not shown) [^99mTc-EC-penciclovir] | tumors could be visualized | –
